## Library screen at single concentrations

Amino acid sequences for entries named in this document (tags omitted). Residues count along the entry.
UniProt Q8IDJ8, 1-583: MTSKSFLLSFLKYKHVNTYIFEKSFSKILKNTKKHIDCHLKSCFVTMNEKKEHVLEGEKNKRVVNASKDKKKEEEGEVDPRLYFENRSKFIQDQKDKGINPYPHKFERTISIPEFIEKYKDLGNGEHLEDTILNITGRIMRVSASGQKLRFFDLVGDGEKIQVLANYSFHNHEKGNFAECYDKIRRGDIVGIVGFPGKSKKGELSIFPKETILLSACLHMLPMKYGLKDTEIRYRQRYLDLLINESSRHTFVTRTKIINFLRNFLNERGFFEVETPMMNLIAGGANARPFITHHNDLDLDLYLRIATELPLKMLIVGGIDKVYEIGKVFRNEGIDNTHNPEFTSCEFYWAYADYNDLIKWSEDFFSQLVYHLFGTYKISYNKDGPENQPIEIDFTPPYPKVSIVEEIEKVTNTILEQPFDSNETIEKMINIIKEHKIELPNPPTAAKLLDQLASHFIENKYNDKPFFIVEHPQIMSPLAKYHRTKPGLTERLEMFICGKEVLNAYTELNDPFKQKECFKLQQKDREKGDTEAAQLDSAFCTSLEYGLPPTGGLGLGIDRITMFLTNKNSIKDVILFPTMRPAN
UniProt P9WFT3, whole entry: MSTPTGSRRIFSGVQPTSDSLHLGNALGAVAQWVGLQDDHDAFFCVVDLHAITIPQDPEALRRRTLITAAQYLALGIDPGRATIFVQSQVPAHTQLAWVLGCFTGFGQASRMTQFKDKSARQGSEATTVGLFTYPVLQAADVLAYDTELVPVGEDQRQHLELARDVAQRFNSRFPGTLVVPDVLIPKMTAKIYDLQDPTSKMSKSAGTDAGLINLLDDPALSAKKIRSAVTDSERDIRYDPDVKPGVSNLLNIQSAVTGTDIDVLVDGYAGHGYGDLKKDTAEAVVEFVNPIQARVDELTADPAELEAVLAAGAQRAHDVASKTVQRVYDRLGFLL
UniProt P9WPC5, whole entry: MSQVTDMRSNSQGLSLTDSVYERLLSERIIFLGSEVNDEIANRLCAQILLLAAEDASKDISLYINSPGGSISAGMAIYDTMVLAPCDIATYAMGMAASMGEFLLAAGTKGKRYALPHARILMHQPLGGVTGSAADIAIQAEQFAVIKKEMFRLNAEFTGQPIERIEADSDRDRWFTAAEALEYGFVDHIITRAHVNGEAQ
UniProt P9WPC3, whole entry partner: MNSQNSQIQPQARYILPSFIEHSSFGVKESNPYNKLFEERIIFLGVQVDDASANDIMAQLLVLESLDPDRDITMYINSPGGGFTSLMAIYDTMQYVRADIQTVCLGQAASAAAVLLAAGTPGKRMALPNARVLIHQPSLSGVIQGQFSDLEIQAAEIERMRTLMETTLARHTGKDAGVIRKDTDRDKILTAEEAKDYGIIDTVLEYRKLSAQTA
UniProt Q4DA54, 1-478: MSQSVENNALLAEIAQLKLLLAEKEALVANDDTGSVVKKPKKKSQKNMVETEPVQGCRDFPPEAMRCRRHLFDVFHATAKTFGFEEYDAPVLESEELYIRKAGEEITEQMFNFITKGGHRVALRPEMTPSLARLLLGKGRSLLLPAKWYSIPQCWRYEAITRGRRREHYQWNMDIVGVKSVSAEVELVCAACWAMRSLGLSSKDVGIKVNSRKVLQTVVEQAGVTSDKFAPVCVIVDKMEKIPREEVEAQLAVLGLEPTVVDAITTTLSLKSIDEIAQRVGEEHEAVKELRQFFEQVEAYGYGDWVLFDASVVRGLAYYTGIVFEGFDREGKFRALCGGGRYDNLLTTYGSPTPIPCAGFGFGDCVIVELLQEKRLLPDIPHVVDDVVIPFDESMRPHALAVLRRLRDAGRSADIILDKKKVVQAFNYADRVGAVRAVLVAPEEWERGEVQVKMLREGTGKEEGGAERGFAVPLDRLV

A: 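Lysine-tRNA ligase, Plasmodium falciparum 3D7 (UniProt Q8IDJ8). Enzyme assay of the cytosolic lysyl-tRNA synthetase in 384-well plates, read by luminescence. Tested at 30 µM. Higher reads as stronger inhibition, judged from the few compounds that gave an IC50. Size under these conditions: about 69,000 compounds, about 49 of them at 50% or above in at least one test.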
B: 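Enzyme assay of tryptophanyl-tRNA synthetase; the read-out is not stated. Target: Tryptophan-tRNA ligase, Mycobacterium tuberculosis (UniProt P9WFT3). Tested at 10 µM. Higher most likely means stronger inhibition; the record gives no direction and few retests gave an IC50. About 65,000 compounds were tested under these conditions; 0.098% (about 64) showed 50% or more at least once.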
C: 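ClpP1P2, Mycobacterium tuberculosis (UniProt P9WPC5 and UniProt P9WPC3). Protease assay of ClpP1P2, read by the AMC dye that it sets free. Tested at 50 µM. Higher reads as stronger inhibition, judged from the few compounds that gave an IC50. Most other retested compounds had strongly negative values. Of about 69,000 compounds tested this way, about 10 (0.015%) reached 50% or more in at least one test.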
D: 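Enzyme assay of histidyl-tRNA synthetase; the read-out is not stated. Target: Histidine-tRNA ligase, Trypanosoma cruzi CL Brener (UniProt Q4DA54). Tested at 30 µM. Direction is inferred from retests: higher values go with stronger inhibition. Of about 69,000 compounds tested this way, about 31 (0.045%) reached 50% or more in at least one test.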

Results are given as percent effect. How 0% and 100% were set is not recorded. Most values in the screen are low, and negative values occur. Compounds were drawn at random from those tested, without regard to their results.

O=C(c1ccc(F)cc1)N1C[C@H]2CCC[C@@]2(COCc2ccccn2)C1 read A: 7.207%; B: 3.4%; C: -2.936%; D: 0.5525%. Result for Cc1ccc2nc(CN(C)Cc3ccc(C)o3)cc(=O)n2c1 was A: 7.19%; B: -0.5202%; C: 7.921%; D: 15.87%. COc1cc(C2CC(=O)Oc3cc(C)[nH]c(=O)c32)ccc1O (stereo not given) read A: 5.051%; B: 2.026%; C: -4.285%; D: 6.024%. Result for CC(C)(O)CSCCNC(=O)c1ccc(F)cc1Cl was A: 2.186%; B: 2.683%; C: -4.205%; D: 4.372%. CCNC(c1cccnc1)c1ccc(F)c(F)c1 (stereo not given) gave A: -5.734%; B: -2.827%; C: 4.118%; D: 1.128%.

With OCCC1CN(C2CCC2)CCN1C1CCCC1 (stereo not given) the screen gave A: -6.039%; B: -5.308%; C: -2.864%; D: 0.813%. With COCCN1CCC(c2nc3cc(C)ccc3[nH]2)CC1 the screen gave A: -1.888%; B: -8.249%; C: 3.502%; D: 6.977%. For N#CCCN(C(=O)CN1CCCC1c1ccccc1Cl)c1ccccc1 (stereo not given) the result was A: 7.1%; B: -8.259%; C: -10.82%; D: 1.724%. COCCOCC(=O)N1CCCC(c2ncc[nH]2)C1 (stereo not given) read A: 12.32%; B: 3.263%; C: 1.768%; D: 4.878%. Cc1csc(NC(=O)[C@@H]2C[C@H]3[C@H](CCN3c3ncccn3)O2)n1 read A: 2.058%; C: -1.227%; D: 13.97%.

Result for CO[C@H]1C[C@@H]2CN(C(=O)c3cc4cccc(F)c4[nH]3)C[C@@H]2C1 was A: -0.2276%; B: -8.431%; C: -2.542%; D: 6.061%. For Cc1nsc(NC2CCOC3(CCCCC3)C2)n1 (stereo not given) the result was A: -0.1624%; B: 0.6717%; C: -10.8%; D: 2.041%. O=C(NCc1ccco1)c1cc(N2CC[C@@H](O)C2)ccn1 gave A: 1.015%; B: 1.188%; C: -2.076%; D: 9.091%. CC(=O)NCC1CCN(C(=O)CCOc2ccc(C(C)C)cc2)CC1 gave A: -0.8797%; B: -5.461%; C: -20.95%; D: 5.917%. Result for CN(C)CC1(O)CCN(Cc2cnc3c(-c4ccccc4)cnn3c2)C1 (stereo not given) was A: 0.8957%; B: 8.333%; C: -13.57%; D: 5.464%.

COCC(=O)N1CCCCC1c1ccnc(Nc2cnccn2)n1 (stereo not given) gave A: -0.2814%; C: -11.71%; D: 0%. With COc1ccc(COCC(=O)N2CCC(c3nncn3C)CC2)cc1 the screen gave A: 2.528%; B: 0.1555%; C: -16.95%; D: 2.97%. For O=C(Cc1cn2ccsc2n1)N1CCOCC(O)(CN2CCCC2)C1 (stereo not given) the result was A: 3.877%; B: 3.367%; C: -4.794%; D: 1.064%. With Cc1noc(C)c1CNC(=O)c1cn(CCC2CCCCN2)nn1 (stereo not given) the screen gave A: 2.196%; B: 4.329%; C: -1.256%; D: -2.273%. With COCC(=O)N1CCC(C(=O)c2cc(C)cnc2N)CC1 the screen gave A: -1.285%; C: -39.22%; D: 0.7491%.

For CCn1cnnc1C1CCN(C(=O)CC(C)n2cccc2)CC1 (stereo not given) the result was A: 2.679%; B: 7.498%; C: 13.23%; D: 1.064%. For Cc1cnn(CC(=O)N2CCC3(CCC(=O)N(C4CCCC4)C3)CC2)c1 the result was A: 0.1342%; B: -2.515%; C: -5.7%; D: 5.759%. Result for CCC(c1ccccc1)S(=O)(=O)CCO (stereo not given) was A: 2.141%; B: 4.2%; C: -4.37%; D: 1.587%. For CN1CCN([C@H]2CCN(C(=O)c3nn(C)cc3Cl)C[C@H]2CCCO)CC1 the result was A: 5.773%; B: -0.2138%; C: -5.822%; D: -0.8696%. Result for CC(=O)N1CCCC1(C)c1nc(C)no1 (stereo not given) was A: 0.2134%; B: -2.626%; C: 2.961%; D: 4.545%.

O=C(c1cncs1)N1CCOCC(Cc2ccncn2)C1 (stereo not given) read A: -0.3274%; B: 1.823%; C: -8.901%; D: 2.682%. Result for O=C(CCN1C(=O)CCC1=O)Nc1ccc(OCC(F)(F)F)nc1 was A: -0.09799%; B: -0.6388%; C: 5.235%; D: 9.195%. With Cc1ccc(Oc2cc(CN)ccn2)cc1C the screen gave A: -0.3661%; B: -2.601%; C: 1.132%; D: 7.463%. With Cc1nn(C)c(N2CCOCC2)c1CNC1CCCCNC1=O (stereo not given) the screen gave A: 1.959%; B: -6.502%; C: -1.081%; D: 2.762%. CN(C)C1CCN(C(=O)NCc2ccccc2Cn2cncn2)CC1 gave A: 2.081%; B: -3.328%; C: -8.755%; D: -1.667%.

Result for CC(C)N(C)Cc1ncn2c1CN(S(=O)(=O)c1cccs1)CCC2 was A: 3.549%; B: 7.974%; C: -9.763%; D: 9.804%.

The first 3 entries again:

structure,A,B,C,D
O=C(c1ccc(F)cc1)N1C[C@H]2CCC[C@@]2(COCc2ccccn2)C1,7.207,3.4,-2.936,0.5525
Cc1ccc2nc(CN(C)Cc3ccc(C)o3)cc(=O)n2c1,7.19,-0.5202,7.921,15.87
COc1cc(C2CC(=O)Oc3cc(C)[nH]c(=O)c32)ccc1O (stereo not given),5.051,2.026,-4.285,6.024

Source: ChEMBL document CHEMBL3988442, “University of Dundee, Small-Polar-MMV Screening Library” (2021).